Values quoted from earlier work, collected in patent publication US20190142748A1 (priority 2016, published 2019).
At least one read-out could not be matched to a standard name with certainty.

Conditions: single oral doses of 0.6 to 1.2 mg/kg; cited from earlier work

Question: For `O=C(O)CCCc1ccc(N(CCCl)CCCl)cc1` [Chlorambucil], which “time to peak plasma chlorambucil levels (Cmax)” value is on record?
Answer: The value was no more than 1 h.
